# Test results from PubChem BioAssay AID493014 (National Center for Advancing Translational Sciences (NCATS), 2011).
# “And” between values parts separate entries of the source, which are not always exact repeats. Identical values can stand only once. This is one part of the list. Shown are side measurements of this screen, not its main read-out; they come without a call. Compounds called inactive in the main read-out are mostly missing here. Words in brackets tell the shape of the fitted curve; partial curves, single points and poor fits give uncertain potencies.
# Assay: qHTS Assay to Find Inhibitors of Chronic Active B-Cell Receptor Signaling
# Details: ABC-DLBCL IkBa-CBG/CBR reporter, luminescence ratio (green luciferase fused to IkBa over red control in TMD8 lymphoma cells), 4 h
# Method in brief: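 Cell line TMD8 (human ABC DLBCL), stably expressing tet-inducible CBG68-IkBa fusion and CBR; IMDM/0.5% FBS; cpd up to 46 uM; dox induction, 4 h, 37C/5% CO2; dual luminescence; green/red ratio; MG132 control.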
# [1] = measured here: CBR red luminescence, cell number
# [2] = measured here: IkBa-CBG green luminescence
SMILES,AC50 [1],AC50 [2]
Cn1c(SCC(=O)N2CCCCC2)nc2c(c1=O)SCC2,"22.4 µM [falling, partial curve, poor fit]",–
C=CCOC(=O)C1=C(C)OC(N)=C(C#N)C1c1ccc(OC)c(CSc2ccccn2)c1 (stereo not drawn),–,"20.6 µM [falling, single point]"
Cc1ccccc1-c1nc2ccccc2c(=O)n1/N=C/c1ccccc1[N+](=O)[O-],"12.6 µM [falling, partial curve, poor fit]",–
CCOC(=O)c1c(-c2ccccc2)oc2ccc(OCC(O)CN(C)C)cc12 (stereo not drawn),"5.01 µM [falling, partial curve, poor fit]",–
CC(=C/c1ccco1)/C=N/NC(=O)CSc1nnc(SCc2ccc(C)cc2)s1,"20.6 µM [falling, single point]",–
COc1ccc(C(=O)N/N=C/c2ccc(OC)c(COc3ccc(F)cc3F)c2)cc1,"5.62 µM [falling, full curve, poor fit]",–
CC(=O)c1cc(-c2ccccc2)n(CCC(=O)NC(C)(C)C)c1C,"14.1 µM [rising, partial curve]",–
O=S(=O)(c1ccc(Br)s1)N1CCN(c2ccccn2)CC1,"2.82 µM [falling, full curve, poor fit]",–
COc1ccc(CCNC(=O)c2ccc3c(c2)N(Cc2ccc(C)cc2)CCS3)cc1OC,"35.5 µM [falling, single point]",–
COc1cc(/C=C2/CC/C(=C/c3ccc(O)c(OC)c3)C2=O)ccc1O,"17.8 µM [falling, partial curve, poor fit]",–
CCOC(=O)c1c(C)[nH]c(C(=O)COC(=O)CNC(=O)c2ccc(Cl)cc2)c1C,"20.6 µM [falling, partial curve]",–
COc1cc(/C=C(\C#N)C(=O)NCC2CCCO2)ccc1OCCC(C)C (stereo not drawn),"6.31 µM [rising, single point]",–
Cc1ccc2cc(CCNS(=O)(=O)c3ccc(Br)cc3)c(=O)[nH]c2c1C,"14.1 µM [falling, partial curve, poor fit]",–
Cc1cn([C@H]2C=C[C@@H](CO)O2)c(=O)[nH]c1=O,"10 µM [falling, partial curve] and 20.6 µM [rising, partial curve, poor fit]",–
CC1=CC(=C2C=CC(=O)C=C2)C=C(C)N1C,"31.6 µM [rising, single point]",–
CC(=O)c1c(C)[nH]c(C(=O)OCC(=O)N(CC(C)C)C2CCS(=O)(=O)C2)c1C (stereo not drawn),"13 µM [falling, partial curve]",–
Cc1c(C(=O)Nc2ccc(F)c(F)c2)oc2ccc(S(=O)(=O)N3CCCCC3)cc12,"4.47 µM [falling, full curve, poor fit]",–
CC(C)(Oc1ccc(Cl)cc1)C(=O)N/N=C/c1cn[nH]c1-c1ccccc1,"23.1 µM [falling, partial curve, poor fit]",–
CCOc1ccccc1NC(=O)c1c(NC(=O)CCC(=O)O)sc2c1CCCCC2,"35.5 µM [falling, single point]",–
CCC(Sc1nc(C)cc(C)n1)C(=O)O (stereo not drawn),"0.708 µM [rising, full curve, poor fit]",–
CCOC(=O)c1c(C)[nH]c(C)c1C(=O)Cn1nnc(-c2ccccc2C)n1,"11.6 µM [rising, partial curve, poor fit]",–

SMILES,AC50 [1],AC50 [2]
COc1ccc(-c2cccc(C3CC=CC4C3C(=O)N(Cc3ccccc3)C4c3ccc4ccccc4c3)c2)cc1 (stereo not drawn),"35.5 µM [rising, single point]",–
CCCCC(O)(CCCC)C(=O)NN(C(=O)c1cccnc1Cl)c1ccccc1,"0.1 µM [rising, full curve, poor fit]",–
NC(=O)c1ccsc1NC(=O)COC(=O)c1ccc(Cl)c(N)c1,"8.2 µM [falling, partial curve]",–
O=S(=O)(CC(c1ccccc1)N1CCCCC1)c1ccc(Cl)cc1 (stereo not drawn),"35.5 µM [rising, single point]",–
COCc1cc(=O)[nH]c(SCCS(=O)(=O)c2ccc(C)cc2)n1,"5.01 µM [falling, full curve, poor fit]",–
COC(=O)C(NC(C)=O)(Nc1nc2ccc(S(C)(=O)=O)cc2s1)C(F)(F)F (stereo not drawn),"0.00461 µM [rising, full curve, poor fit]",–
CN(C)C=NC(=O)c1cc(C(=O)c2ccc(Cl)cc2Cl)c[nH]1,"20 µM [falling, partial curve, poor fit]",–
O=C(/C=C/c1ccc(N2CCCCC2)c([N+](=O)[O-])c1)c1ccc(O)cc1,"7.08 µM [falling, partial curve, poor fit]",–
Oc1ccccc1-c1nc(N2CCCC2)c2ccccc2n1,"0.651 µM [rising, full curve, poor fit]",–
O=C(NC(=S)Nc1cccc2cccnc12)c1ccccc1,"0.224 µM [falling, full curve]",–
NC(=O)NOCc1cccc(Cl)c1,"14.1 µM [rising, partial curve, poor fit]",–
CCOc1ccccc1-n1c(CNc2ccc(F)cc2)nnc1SCC(=O)NCc1ccco1,"4.61 µM [falling, full curve]",–
O=C(NCCc1ccc(F)cc1)Nc1ccccc1,"22.4 µM [falling, single point]",–
CC1CCN(c2nc3ccc(C(=O)NCCCN4CCCCC4C)cc3s2)CC1 (stereo not drawn),"0.398 µM [falling, full curve, poor fit]",–
COc1ccc(NC(=O)Nc2ccc(OC)cc2)cc1,"29.1 µM [rising, single point]",–
O=C(Nc1nc(N2C(=O)c3ccccc3C2=O)n(-c2ccccc2)n1)c1ccc(F)cc1,"35.5 µM [falling, single point]",–
CC(/C=C/c1ccc2c(c1)OCO2)=N/NC(=O)COc1ccc(C)cc1,"2.91 µM [rising, single point]",–
CCOC(=O)c1c(NC(=O)CS(=O)(=O)c2ccc(C)cc2)sc2c1CCC(C)C2 (stereo not drawn),"10 µM [rising, partial curve, poor fit]",–
O=C(CCCn1c(SCC(=O)c2ccc(O)c(O)c2)nc2ccccc2c1=O)NCC1CCCO1 (stereo not drawn),"25.1 µM [falling, single point]",–
COc1cc2c(cc1OC)CN(S(=O)(=O)c1ccc(Cl)nc1)CC2,"29.1 µM [rising, single point]",–
O=C(CSC1CC(=O)N(CCc2ccccc2)C1=O)Nc1ccc(Cl)cc1 (stereo not drawn),"23.1 µM [falling, single point]",–

SMILES,AC50 [1],AC50 [2]
Cc1cccc(NC(=O)CSc2nnc(-c3n[nH]c4ccccc34)o2)c1,"3.66 µM [rising, partial curve, poor fit]",–
COc1ccc(S(=O)(=O)N2CCCCC2)cc1NC(=O)CNc1ccccc1C(C)=O,"20.6 µM [falling, partial curve]",–
CN(N)C(=S)Nc1ccc(Cl)cc1,"31.6 µM [rising, single point]",–
O=C(/C=C/c1cccs1)c1cc(Cl)ccc1OC(=O)N1CCOCC1,–,"29.1 µM [falling, partial curve, poor fit]"
O=C(N/N=C/c1ccc2c(c1)OCO2)c1ccc2c(c1)OCCO2,"5.17 µM [falling, partial curve]",–
Cc1cccc(Nc2ncnc3ccc(Br)cc23)c1,"17.8 µM [falling, partial curve, poor fit]",–
CCOc1cc(N2CCOCC2)c(OCC)cc1NC(=O)c1cccc(N(C)C)c1,"6.31 µM [rising, partial curve, poor fit]",–
CC(C)(C)C(=O)Nc1ccccc1N1CCN(C(=O)c2ccc(Cl)cc2)CC1,"5.8 µM [falling, partial curve, poor fit]",–
O=C1C(Cc2ccc(O)cc2)NC(=S)N1c1ccccc1 (stereo not drawn),"2 µM [rising, partial curve, poor fit]",–
O=C(O)c1nn(-c2cccc(Cl)c2)c(=O)cc1O,"7.94 µM [falling, partial curve, poor fit]",–
CCCNc1c(NS(=O)(=O)c2ccc(C)cc2C)c(=O)oc2ccccc12,"8.91 µM [falling, partial curve, poor fit]",–
O=C1Nc2ccc(Br)cc2C1=Nc1cccnc1,"35.5 µM [rising, partial curve, poor fit]","22.4 µM [falling, single point]"
CN1C/C(=C/c2cccnc2)C(=O)/C(=C/c2cccnc2)C1,"29.1 µM [falling, single point]",–
Cc1cc(C)c2c(N)c(C(=O)NCC3CCCCC3)sc2n1,"0.0461 µM [rising, full curve, poor fit]",–
O=C(/C(C=Nc1ccc(Br)cc1)=C(/O)c1ccco1)C(F)(F)F,"18.4 µM [falling, single point]",–
CC(C)CCNC(=O)c1ccc(C2SCC(=O)N2Cc2ccco2)cc1 (stereo not drawn),"23.1 µM [rising, partial curve, poor fit]",–
Cc1ccc(C(=O)c2coc3cc([N+](=O)[O-])c(O)c([N+](=O)[O-])c23)cc1,"20.6 µM [rising, single point]","4.11 µM [rising, full curve, poor fit]"
CCOC(=O)CSC1=C(C#N)C(c2ccco2)C(C(=O)Nc2cccc(C(F)(F)F)c2)=C(C)N1 (stereo not drawn),"29.1 µM [rising, single point]",–
COc1ccc(CNc2nc(S(=O)(=O)c3ccccc3)c(Cl)s2)cc1OC,"16.4 µM [falling, partial curve, poor fit]",–
